The experiment concerns the target T1, endogenous reduced human IL-33 in human samples (vitreous humor, serum) (human) (UniProt O95760).
T1 sequence (looked up): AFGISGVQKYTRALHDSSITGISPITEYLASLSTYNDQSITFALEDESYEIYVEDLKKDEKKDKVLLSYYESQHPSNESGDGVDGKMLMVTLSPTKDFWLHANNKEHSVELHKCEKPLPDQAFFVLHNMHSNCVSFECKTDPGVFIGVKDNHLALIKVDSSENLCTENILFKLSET
Description: immunodepletion of diluted human vitreous humor with antibody-conjugated beads; remaining reduced hIL-33 measured by iPCR.

These are yes or no findings as the source states them, for the method shown. Some binding calls cover weakened binding; strength is not graded here.

B1: rat IgG2a anti-human IL-33 clone 15.21C7 (antibody, V domains shown)
VH: EVQLVESGGGLVQPGTSLKLSCVASGFTFSDFWMSWVRQTPGKTMEWIADIKNDGSHTKYAPSLQNRFTISRDNAKNTLYLEVTDVRSEDTATYYCTRVGGTYTAYYWGHGVMVTVSS
VL: DIQMTQTPSSMPASLGERVTLSCRTSQGINTYLNWYQQKPDGTITPLIHYTSNLESGVPSRFSGSGFGTDYFLTISSLEPEDFAMYFCQQYASSPWTFGGGTKLELKK
notes: also called rat anti-reduced hIL-33 15.21C7 IgG2a
B1: the binding entry is “binds”.

Source of the values: patent publication US20250002575A1 (Genentech, published 2025).
